Test results published in publication PMC3885706.
Results are given in words; binding and its absence hold for the method and conditions named. Binding seen in cells or lysates may run through a third protein. Some binding calls cover weakened binding; strength is not graded here.

Protein sequences, listed by entry. Tags and fused reporters are not part of them.
UniProt P30937: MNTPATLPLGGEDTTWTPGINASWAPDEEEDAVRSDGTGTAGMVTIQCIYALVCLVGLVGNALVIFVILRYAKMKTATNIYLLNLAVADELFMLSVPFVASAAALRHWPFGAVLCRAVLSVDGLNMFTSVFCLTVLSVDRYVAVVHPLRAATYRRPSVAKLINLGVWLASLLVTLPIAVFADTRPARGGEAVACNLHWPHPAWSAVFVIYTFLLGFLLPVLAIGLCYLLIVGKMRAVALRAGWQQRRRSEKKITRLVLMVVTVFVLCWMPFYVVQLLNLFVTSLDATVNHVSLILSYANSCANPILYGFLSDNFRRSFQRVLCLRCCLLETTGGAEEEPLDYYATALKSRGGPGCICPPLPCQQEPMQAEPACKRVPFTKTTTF

Molecular target: somatostatin receptor 4 (SSTR4), endogenous in rat brain, spinal cord and cultured striatal neurons (rat (endogenous in brain, spinal cord and cultured striatal neurons)) (UniProt P30937)
Assay: co-IP; rat cortex, striatum and spinal cord tissue lysate (250 µg protein in 50 mM HEPES, 2 mM CaCl2, 5 mM MgCl2, pH 7.5), basal or treated with L-803087 (10 nM), SB-205607 (10 nM) alone or in combination for 30 min at 37°C; immunoprecipitated with SSTR4 antibody, blotted for δOR

- binding: binds
Substance: δ-Opioid receptor (δOR), endogenous in rat brain, spinal cord and cultured striatal neurons (from UniProt P33533 1-372)
